The record followed here is PubChem BioAssay AID230 (DTP/NCI, 2004).

Each structure is given as a SMILES string. The list does not hold the whole screen: it is rich in T/C values a quarter to a half above the control, in often repeated tests (any T/C) and in doses without a T/C. Other doses and runs of a compound stand elsewhere. T/C: endpoint of the treated group in % of that of the vehicle group. Some doses have a count of surviving animals in place of a T/C: the source files T/C as zero there, which appears to mark a toxic dose or a test without result, not a measured value. Some survivor counts are full or nearly so, which does not show that the dose was tolerated: survival well below the control is almost never listed, so the zero probably covers shortened survival too. Counts of survivors are from the toxicity check (mostly the fifth day) where no day follows; animals may have died later. Schedule codes are those of the source, read here as Q, the interval in days (D) or hours (H), X, the number of doses. For survival time, this PubChem deposit counts one and a half times the control or more as active, and values a quarter to a half above the control carry no call in these data; other NCI protocols may use other cut-offs. Some entries hold several experiments; their values stand side by side, smallest first.

The test relates to C3H/He mice, Gardner lymphosarcoma 6C3HED ip, survival T/C. Nature of the test: NCI In Vivo Anticancer Drug Screen. Data for tumor model Lymphosarcoma Gardner 6C3HED (intraperitoneal) in C3H/He mice. The conditions noted are these: vehicle: saline, higher T/C = longer survival. As to the method: The antitumor activity of compounds was measured in mice bearing transplantable tumors. Survival or tumor size were measured and the results are expressed as the measurement made in the treated group (T) divided by the measurement made in the vehicle treated control group (C). The tumor model used in this assay is Lymphosarcoma Gardner 6C3HED (intraperitoneal) in C3H/He mice

[1] abbreviates: T/C endpoint: survival time, mean or median, dose: 250.0 mg/kg/injection, schedule: Q01DX010 (ip).
[2] abbreviates: T/C endpoint: survival time, mean or median, dose: 12.5 mg/kg/injection, schedule: Q01DX010 (ip).
Setting [3] is: T/C endpoint: survival time, mean or median, dose: 25.0 mg/kg/injection, schedule: Q01DX010 (ip).
The mark [4] stands for this setting: T/C endpoint: survival time, mean or median, dose: 200.0 mg/kg/injection, schedule: Q01DX010 (ip).
[5] abbreviates: T/C endpoint: survival time, mean or median, dose: 31.3 mg/kg/injection, schedule: Q01DX010 (ip).
[6] abbreviates: T/C endpoint: survival time, mean or median, dose: 62.5 mg/kg/injection, schedule: Q01DX010 (ip).

Turning to `Nc1nc(=S)c2ncn(C3OC(CO)C(O)C3O)c2[nH]1` (centres undefined), the survivor count is, setting by setting: (T/C endpoint: median survival time, dose: 16.0 mg/kg/injection, schedule: Q01DX009 (ip)) 9 of 10; (T/C endpoint: survival time, mean or median, dose: 4.0 mg/kg/injection, schedule: Q01DX010 (ip)) 6 of 6; (T/C endpoint: survival time, mean or median, dose: 8.0 mg/kg/injection, schedule: Q01DX010 (ip)) 6 of 6.
On to `CCN(CC)C(=S)S`, for which the survivor count by setting is: under setting [1], 6 of 6; (T/C endpoint: survival time, mean or median, dose: 1000.0 mg/kg/injection, schedule: Q01DX010 (ip)) 5 of 6.
Consider `CS(=O)(=O)OCCC(=O)N1CCN(C(=O)CCOS(C)(=O)=O)CC1`, for which the T/C was 130 % of control under setting [2]; 129 and 138 % of control under setting [3]. Besides, the survivor count under setting [4] is listed as 5 of 6.
On to `Nc1nc(=O)n(C2CC(O)C(CO)O2)cc1Br` (centres undefined), for which the survivor count runs as follows: (T/C endpoint: survival time, mean or median, dose: 400.0 mg/kg/injection, schedule: Q01DX010 (ip)) 6 of 6; (T/C endpoint: survival time, mean or median, dose: 800.0 mg/kg/injection, schedule: Q01DX010 (ip)) 6 of 6.
For the molecule `NCC(=O)O`, for the setting “T/C endpoint: median survival time, dose: 1500.0 mg/kg/injection, schedule: Q04HX020 (ip)”, the survivor count was 6 of 6.
For `COc1cc(-c2ccc(Nc3ccccc3C(=O)O)c(OC)c2)ccc1Nc1ccccc1C(=O)O`, the survivor count (T/C endpoint: survival time, mean or median, dose: 100.0 mg/kg/injection, schedule: Q01DX010 (ip)) is reported as 4 of 6 and the survivor count under setting [4] is 4 of 6.
For `C[C@H]1C(=O)O[C@@H]2CCN3CC=C(COC(=O)[C@](C)(O)[C@@]1(C)O)[C@H]23`, the T/C under setting [3] was 145 % of control.
On to `O=C(O)c1[nH]c(=O)[nH]c(=O)c1F`, for which the survivor count is 6 of 6 (T/C endpoint: survival time, mean or median, dose: 0.63 mg/kg/injection, schedule: Q01DX010 (ip)) and 6 of 6 (T/C endpoint: survival time, mean or median, dose: 1.25 mg/kg/injection, schedule: Q01DX010 (ip)).
Consider `Nc1c(Br)cc2c(c1Br)Cc1cc([N+](=O)[O-])ccc1-2`, for which the survivor count by setting is: (T/C endpoint: survival time, mean or median, dose: 15.6 mg/kg/injection, schedule: Q01DX010 (ip)) 6 of 6; under setting [5], 6 of 6; under setting [6], 6 of 6; (T/C endpoint: survival time, mean or median, dose: 125.0 mg/kg/injection, schedule: Q01DX010 (ip)) 6 of 6; under setting [1], 6 of 6; (T/C endpoint: survival time, mean or median, dose: 500.0 mg/kg/injection, schedule: Q01DX010 (ip)) 6 of 6.
For the molecule `N#[N+]c1cnc([O-])[nH]c1=O`, the survivor count (T/C endpoint: survival time, mean or median, dose: 10.0 mg/kg/injection, schedule: Q01DX010 (ip)) was 5 of 6.
For `CCCSc1ncnc2nc[nH]c12`, the survivor count reads like this: under setting [5], 6 of 6; under setting [6], 6 of 6.
Take `[I][Hg][CH2]C1COC([CH2][Hg][I])CO1` (centres undefined): the survivor count (T/C endpoint: survival time, mean or median, dose: 0.78 mg/kg/injection, schedule: Q01DX010 (ip)) was 6 of 6; the survivor count (T/C endpoint: survival time, mean or median, dose: 6.25 mg/kg/injection, schedule: Q01DX010 (ip)) was 6 of 6; the survivor count under setting [2] is 6 of 6; the survivor count under setting [3] is on record as 5 of 6; the survivor count (T/C endpoint: survival time, mean or median, dose: 50.0 mg/kg/injection, schedule: Q01DX010 (ip)) is 0 of 6.
Consider `CCCCn1cnc2c(=S)nc[nH]c21`, for which the survivor count (T/C endpoint: survival time, mean or median, dose: 2.0 mg/kg/injection, schedule: Q01DX010 (ip)) is recorded as 6 of 6; the survivor count (T/C endpoint: survival time, mean or median, dose: 32.0 mg/kg/injection, schedule: Q01DX010 (ip)) is reported as 6 of 6; the survivor count (T/C endpoint: survival time, mean or median, dose: 64.0 mg/kg/injection, schedule: Q01DX010 (ip)) is reported as 6 of 6; the survivor count (T/C endpoint: survival time, mean or median, dose: 128.0 mg/kg/injection, schedule: Q01DX010 (ip)) is 6 of 6.
